Drawing on PMC10442393, this text covers binding for 2 substances.

Sequences of proteins named here, by UniProt entry; tags and fusion partners are left off.
UniProt P03146: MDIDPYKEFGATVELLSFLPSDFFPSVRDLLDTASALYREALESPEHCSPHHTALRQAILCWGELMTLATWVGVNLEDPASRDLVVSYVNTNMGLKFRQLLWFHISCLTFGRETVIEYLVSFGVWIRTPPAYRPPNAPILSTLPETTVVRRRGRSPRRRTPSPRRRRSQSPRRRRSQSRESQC

In assay [1] the target is T1, endogenous TRIM26 (human (endogenous in Huh-7)) (UniProt Q12899).
T1 sequence: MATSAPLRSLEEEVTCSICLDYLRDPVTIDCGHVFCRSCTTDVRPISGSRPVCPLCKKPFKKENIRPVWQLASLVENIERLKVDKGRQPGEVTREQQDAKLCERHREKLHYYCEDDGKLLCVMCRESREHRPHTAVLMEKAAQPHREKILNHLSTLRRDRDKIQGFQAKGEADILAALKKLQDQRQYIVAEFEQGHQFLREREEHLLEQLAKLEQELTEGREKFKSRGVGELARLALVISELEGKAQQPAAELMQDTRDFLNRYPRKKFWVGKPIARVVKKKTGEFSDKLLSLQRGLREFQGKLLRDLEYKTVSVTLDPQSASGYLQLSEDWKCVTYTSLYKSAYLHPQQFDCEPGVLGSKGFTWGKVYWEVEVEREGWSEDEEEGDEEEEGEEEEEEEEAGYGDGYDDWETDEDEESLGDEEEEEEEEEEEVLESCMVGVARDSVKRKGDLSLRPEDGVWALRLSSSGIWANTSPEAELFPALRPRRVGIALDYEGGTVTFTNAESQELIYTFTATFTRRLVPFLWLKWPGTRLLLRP
Put plainly: proximity ligation; Huh-7 and Huh-7/HBc-FLAG cells (stable); antibodies against FLAG-tag and TRIM26 (endogenous); PLA dots per nucleus.

The target of assay [2] is T2, FLAG-tagged TRIM26 (tripartite motif-containing protein 26) (UniProt Q12899).
T2 sequence: T1 sequence
Put plainly: co-IP; competitive Co-IP: HEK293T co-transfected with FLAG-TRIM26, TRIM26ΔR and HBc-Myc; harvested at 48 hpt; IP with anti-FLAG antibody; western blotting. In general terms: A western blot detects proteins with antibodies after separation by electrophoresis.

The target in assay [3] is T2, FLAG-tagged TRIM26 (tripartite motif-containing protein 26). Briefly: proximity ligation; HEK293T transiently co-transfected with HBc-Myc and FLAG-TRIM26, FLAG-TRIM26ΔSPRY or FLAG-SPRY; fixed, permeabilised; antibodies against Myc-tag and FLAG-tag; PLA dots per nucleus.
The target is the same in assay [4]. Briefly: co-IP; HEK293T co-transfected with FLAG-TRIM26 or its deletion mutants and a Myc-tagged HBV protein; harvested at 48 hpt in NP-40 buffer (50 mM Hepes pH7.5, 150 mM NaCl, 0.5% NP-40); IP with anti-FLAG antibody on Protein G magnetic beads, room temperature 1 h; western blotting.

No constants are given. Whether binding was seen depends on the method and setting. In cells and extracts the contact can be indirect. Some entries that bind do so weakly or less than the wild type. For some of these results: Sequences can lack the tags named with a protein.

As to “FLAG-tagged HBc (HBc-FLAG) (from UniProt P03146 1-183)”, in assay [1], the binding entry is given as “binds”.

“Myc-tagged HBV core protein (HBc-Myc) (from UniProt P03146 1-183)”: the binding entry in assay [2], in assay [3] and in assay [4] was “binds” in each case.
